{
  "source": "paper PMC11408249",
  "about": "(npj Imaging, 2024)",
  "data": [
    {"test": "peptide synthesis", "conditions": "conjugation step, 220 nm", "units": {"final HPLC purity": "%"}, "values": [
      {"substance": "Ac-C-RDKKVAEQS", "final HPLC purity": 92},
      {"substance": "Ac-C-EWFMKDRLLNRPT", "final HPLC purity": 90},
      {"substance": "Ac-C-TEFPLRMRDWLNK-COOH", "final HPLC purity": 97},
      {"substance": "Ac-C-DARKSEVQK-COOH", "final HPLC purity": 90}
    ]}
  ]
}
